Some of the results follow.

For this experiment, the target named is T1, OsSMF1 (Oryza sativa, UniProt Q6ZLB0 1-436).
T1 sequence: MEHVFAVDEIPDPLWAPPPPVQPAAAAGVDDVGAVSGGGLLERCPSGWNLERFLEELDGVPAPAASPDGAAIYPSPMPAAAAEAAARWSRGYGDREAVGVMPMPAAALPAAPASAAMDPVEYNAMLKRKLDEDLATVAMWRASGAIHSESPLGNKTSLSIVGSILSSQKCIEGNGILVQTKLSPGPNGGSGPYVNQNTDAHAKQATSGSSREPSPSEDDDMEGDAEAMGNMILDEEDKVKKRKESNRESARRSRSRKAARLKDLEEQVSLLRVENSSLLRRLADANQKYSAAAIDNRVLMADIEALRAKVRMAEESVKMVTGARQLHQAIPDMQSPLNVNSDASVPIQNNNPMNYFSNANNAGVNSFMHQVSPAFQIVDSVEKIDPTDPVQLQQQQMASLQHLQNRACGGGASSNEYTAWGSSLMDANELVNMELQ
Briefly: protein-binding microarray (RPBM); PBS, 2% BSA, 51.3 ng/ul salmon testes DNA, 50 uM zinc acetate, 200 nM TF, 25 C, 1 h; high values mean tight binding. Particulars: protein: recombinant; tags: N-terminal polyhistidine and DsRed monomer fusion (pET32a); chain copies: 2; label: CyDye5-dUTP incorporated in the synthesized complementary strand; 3' TTTTT single-stranded linker to array surface; dsDNA, one strand shown. In short, it runs like this:
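In PBS with 2% BSA, salmon testes DNA and 50 µM zinc acetate, 200 nM protein was incubated on a custom Agilent array at 25 °C for 1 h and then washed off. The array had been made double-stranded by primer extension with Cy5-dUTP and blocked with 2% BSA. The proteins were transcription factors fused N-terminally to polyhistidine and DsRed, expressed in E. coli BL21-CodonPlus and purified on Ni–NTA. The binding signal is per-feature fluorescence intensity (arbitrary units) from an Axon 4000B scanner.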
As for “CTTCCCCACCACGGACACCGTCACCACGCGCCCGCTCCGCCGGAGTCACCTAGTGCAG”, the binding signal is 4160 fluorescence intensity (a.u.).

In the case of “TTTTGGATCAATGACGAGGTGGATGCAGTGACAAAGCAGTCGGAGTCACCTAGTGCAG”, the binding signal is 5640 fluorescence intensity (a.u.).

On to “ATGTCTCTCGCAGTCGCTGTCAGTCTGTCTTGTGTCCGCACGGAGTCACCTAGTGCAG”, for which the binding signal is 3220 fluorescence intensity (a.u.).

Take “ACCAAACATTACCTAATGCAATCGAACTATCGAAGACATGCGGAGTCACCTAGTGCAG”: the binding signal was 3700 fluorescence intensity (a.u.).

Turning to “TACGGACCACCTGGGTTTGTCATGGGGTTTACTCCCATCCCGGAGTCACCTAGTGCAG”, the binding signal is 23400 fluorescence intensity (a.u.).

Consider “GGCAATCCCGCCACGTAAGCACCGGCCGTTATAACGGCATCGGAGTCACCTAGTGCAG”, for which the binding signal is 8070 fluorescence intensity (a.u.).

Take “CTTGCCGTCGAAGCGAAGGAACCGCCACCCGACGTCAGCTCGGAGTCACCTAGTGCAG”: the binding signal is 5050 fluorescence intensity (a.u.).

Turning to “GCAGCAGAAATGGCAGCAAGGGTCGTACGTGGATGTGTCCCGGAGTCACCTAGTGCAG”, the binding signal was 4980 fluorescence intensity (a.u.).

Take “GACGGCCCAGCCCATGGCATGGCGCTTTGGCACGGCCCAGCGGAGTCACCTAGTGCAG”: the binding signal is 3960 fluorescence intensity (a.u.).

Turning to “CCACACCAGGGCCTTGTACTCGATGCATCACCCTTGGAAACGGAGTCACCTAGTGCAG”, the binding signal is 4610 fluorescence intensity (a.u.).

Take “GGTAATGATGTGGCGAATGATGACATCACACAAAATGATACGGAGTCACCTAGTGCAG”: the binding signal is 6760 fluorescence intensity (a.u.).

Regarding “GTAGTTCCACGTGTCCTTCTTCTCCATGTCACGCCGGCTGCGGAGTCACCTAGTGCAG”, the binding signal is 22600 fluorescence intensity (a.u.).

Turning to “CTAGTCTTGGTCAGCGTCGCCGCGCCCCATACGTGTGGGCCGGAGTCACCTAGTGCAG”, the binding signal is 3330 fluorescence intensity (a.u.).

Turning to “ACCATTGTTCAGTGAGGCAGAAAACCTGTCACCGCTCGCACGGAGTCACCTAGTGCAG”, the binding signal was 3780 fluorescence intensity (a.u.).

Consider “TGGACAGTGATGTGGCATCAGAAGTTCAGAACTCTCAAGTCGGAGTCACCTAGTGCAG”, for which the binding signal is 5900 fluorescence intensity (a.u.).

In the case of “ATTTCATCCTTATTAGGGCCTATTTGGAGCATTGGCAGGGCGGAGTCACCTAGTGCAG”, the binding signal was 3750 fluorescence intensity (a.u.).

With “CTGTGGTGGTGTGCATACGGGTTGGGGTGGAGGGCTGCTCCGGAGTCACCTAGTGCAG”, the binding signal is 4220 fluorescence intensity (a.u.).

As for “CTATTAAGTTGACTGTAAATAATTTGGAGCCAGCAGTTTGCGGAGTCACCTAGTGCAG”, the binding signal is 3400 fluorescence intensity (a.u.).

Regarding “CGTACACACACATCACTGCTGATGAATCAACCCAACCTCGCGGAGTCACCTAGTGCAG”, the binding signal is 3490 fluorescence intensity (a.u.).

Regarding “TTGGTGACAATAGAGAAAGTTGAGTACGTGTGATGCTCAGCGGAGTCACCTAGTGCAG”, the binding signal is 4990 fluorescence intensity (a.u.).

Consider “TATACGTGTTGACATGGCGGGGAGTGGCTCGTCTCCCGTCCGGAGTCACCTAGTGCAG”, for which the binding signal was 6110 fluorescence intensity (a.u.).

For the sequence “TTGAGTAGGCAACGGAGGTCAGGGACGTGGACTCCCGCGTCGGAGTCACCTAGTGCAG”, the binding signal is 4810 fluorescence intensity (a.u.).

As for “GCAGCGGCGTCAGCTGCGCGTGCCCCGCCTCCGACGCTATCGGAGTCACCTAGTGCAG”, the binding signal was 3630 fluorescence intensity (a.u.).

With “CTCTCTTCCTCTCTCTCTCCTCCGCGTAGGATTTAGCCTGCGGAGTCACCTAGTGCAG”, the binding signal was 3880 fluorescence intensity (a.u.).

As for “TATGGTTCTAAGCATGACTAGGACTGATGCAGCACAAAGTCGGAGTCACCTAGTGCAG”, the binding signal was 6870 fluorescence intensity (a.u.).

On to “ATGCTTGGCTGCTTGCTGTGTTGGCTGTTGCTGAGGGCTACGGAGTCACCTAGTGCAG”, for which the binding signal was 3970 fluorescence intensity (a.u.).

Take “ACTGTTGTTTCTTTTGTACTCATAGTCATAGCCGCGCCGCCGGAGTCACCTAGTGCAG”: the binding signal is 4230 fluorescence intensity (a.u.).

“GCCCGAGAGCGAACGGCCGTCTGCCACGTCACATTTGCCGCGGAGTCACCTAGTGCAG”: the binding signal is 32600 fluorescence intensity (a.u.).

As for “GATCGCGTCGAGGGCTACAAGTTTGATATAAAGTTTGTCTCGGAGTCACCTAGTGCAG”, the binding signal was 26100 fluorescence intensity (a.u.).

Regarding “CTCACGAGCGCAAAGCCCATCTCAGCCCAGCTCCCACTCTCGGAGTCACCTAGTGCAG”, the binding signal was 21000 fluorescence intensity (a.u.).

As to “AGGAAGAAGGGAATTAGTGGGAGGATGACATGTCGGTTCACGGAGTCACCTAGTGCAG”, the binding signal was 5840 fluorescence intensity (a.u.).

Regarding “CTCTGTTCTCGCTGGCCGTACGTGTCAAGCGTATCCAGCACGGAGTCACCTAGTGCAG”, the binding signal is 5870 fluorescence intensity (a.u.).

Take “TCAACTGCAGGGGACGCGATATTTAGGAACATCGCGTCGGCGGAGTCACCTAGTGCAG”: the binding signal is 3160 fluorescence intensity (a.u.).

Turning to “GAGCAGTTAAGAACTCTGACCATGATGCAAAGACAACAGTCGGAGTCACCTAGTGCAG”, the binding signal was 3970 fluorescence intensity (a.u.).

For the sequence “CCTTCACTAACGCTAAACGTCACAGTAACAAACTTTCTCGCGGAGTCACCTAGTGCAG”, the binding signal was 20900 fluorescence intensity (a.u.).

Regarding “CTGCCGCTGCGCGCAGGTCGTGACGCTCACGTCGTCGCCACGGAGTCACCTAGTGCAG”, the binding signal is 4280 fluorescence intensity (a.u.).

Regarding “ACTGTGTTGGTGTACGAAAGGAAAGCGTGGTGGTGCTAAGCGGAGTCACCTAGTGCAG”, the binding signal was 3810 fluorescence intensity (a.u.).

On to “CGCTCGCGTCCCCGTGACGCTGCTTCCCAGCGCCGCTGCCCGGAGTCACCTAGTGCAG”, for which the binding signal is 4400 fluorescence intensity (a.u.).

As for “GACGAGGAAAACCGCTCGCCCATGCGGAGGCGGCGCGCGTCGGAGTCACCTAGTGCAG”, the binding signal was 31500 fluorescence intensity (a.u.).

In the case of “CGCCGCGCTGGTCGCCATCGCCCTCCACGTCTCCTCCTCCCGGAGTCACCTAGTGCAG”, the binding signal is 3980 fluorescence intensity (a.u.).

With “TTCTTCGGTGGTGGTGGTGGTGGGATGGAAGAGGAGGAAGCGGAGTCACCTAGTGCAG”, the binding signal is 3740 fluorescence intensity (a.u.).

Consider “TGCACCGTGGGCCACAGCCTCACGCCGCGTCAGTCGTGCCCGGAGTCACCTAGTGCAG”, for which the binding signal is 6330 fluorescence intensity (a.u.).

Source of the values: PMC7819943, “Rice protein-binding microarrays: a tool to detect cis-acting elements near promoter regions in rice”.
